# These are yes or no findings as the source states them, for the method shown. In cells and extracts the contact can be indirect. Some entries that bind do so weakly or less than the wild type.
# By UniProt entry, the sequences of proteins in these tests, tags left out.
# UniProt P05556: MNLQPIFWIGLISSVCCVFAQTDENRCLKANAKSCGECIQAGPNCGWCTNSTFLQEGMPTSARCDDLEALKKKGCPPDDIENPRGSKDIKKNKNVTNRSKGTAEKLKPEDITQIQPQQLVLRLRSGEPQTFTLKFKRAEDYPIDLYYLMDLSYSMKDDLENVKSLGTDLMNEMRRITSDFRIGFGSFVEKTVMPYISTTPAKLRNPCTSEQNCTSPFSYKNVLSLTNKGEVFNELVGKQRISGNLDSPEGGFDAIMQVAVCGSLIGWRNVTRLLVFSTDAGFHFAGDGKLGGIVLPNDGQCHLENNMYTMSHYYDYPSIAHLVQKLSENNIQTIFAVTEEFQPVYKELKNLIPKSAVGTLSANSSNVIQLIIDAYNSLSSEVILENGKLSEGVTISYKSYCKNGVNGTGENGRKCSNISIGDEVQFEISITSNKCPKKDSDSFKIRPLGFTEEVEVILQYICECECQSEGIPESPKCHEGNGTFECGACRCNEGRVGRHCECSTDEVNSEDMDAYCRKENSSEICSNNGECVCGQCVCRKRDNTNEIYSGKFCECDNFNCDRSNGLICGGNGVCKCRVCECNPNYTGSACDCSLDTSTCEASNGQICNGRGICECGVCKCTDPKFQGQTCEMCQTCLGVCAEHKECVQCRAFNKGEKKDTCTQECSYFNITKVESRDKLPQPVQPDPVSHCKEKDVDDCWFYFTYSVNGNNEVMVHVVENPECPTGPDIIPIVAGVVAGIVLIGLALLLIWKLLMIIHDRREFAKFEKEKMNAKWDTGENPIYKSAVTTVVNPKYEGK
# UniProt Q05397: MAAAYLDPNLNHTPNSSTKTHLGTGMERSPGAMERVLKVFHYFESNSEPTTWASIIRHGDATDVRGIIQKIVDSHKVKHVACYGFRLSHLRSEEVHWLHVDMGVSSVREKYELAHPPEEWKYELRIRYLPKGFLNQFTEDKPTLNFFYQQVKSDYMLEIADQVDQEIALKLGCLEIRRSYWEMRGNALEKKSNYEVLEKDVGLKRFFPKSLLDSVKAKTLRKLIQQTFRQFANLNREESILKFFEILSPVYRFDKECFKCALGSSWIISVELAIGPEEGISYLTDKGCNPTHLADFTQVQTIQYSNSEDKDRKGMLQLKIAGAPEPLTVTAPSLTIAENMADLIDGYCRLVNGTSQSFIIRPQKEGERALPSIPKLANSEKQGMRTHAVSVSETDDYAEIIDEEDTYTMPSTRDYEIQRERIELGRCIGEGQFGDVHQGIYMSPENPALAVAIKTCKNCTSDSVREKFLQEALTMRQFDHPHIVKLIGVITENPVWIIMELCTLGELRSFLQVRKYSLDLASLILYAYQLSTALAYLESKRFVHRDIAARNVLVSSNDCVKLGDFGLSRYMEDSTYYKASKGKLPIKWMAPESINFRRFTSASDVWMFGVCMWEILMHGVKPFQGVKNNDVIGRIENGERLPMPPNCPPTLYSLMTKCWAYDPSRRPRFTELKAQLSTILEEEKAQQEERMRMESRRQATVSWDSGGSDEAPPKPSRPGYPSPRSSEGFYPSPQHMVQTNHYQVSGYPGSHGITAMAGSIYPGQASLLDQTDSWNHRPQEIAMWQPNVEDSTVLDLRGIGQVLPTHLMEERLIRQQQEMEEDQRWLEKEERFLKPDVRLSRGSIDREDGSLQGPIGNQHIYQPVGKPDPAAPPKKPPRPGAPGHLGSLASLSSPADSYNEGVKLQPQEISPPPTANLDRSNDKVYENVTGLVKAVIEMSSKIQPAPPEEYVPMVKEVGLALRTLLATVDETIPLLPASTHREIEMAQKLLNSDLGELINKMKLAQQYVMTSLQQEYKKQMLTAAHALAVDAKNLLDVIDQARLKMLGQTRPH
# Assays:
# [1] = biological target: β1-integrin subunit (human (endogenous in BM-MSC)) (UniProt P05556); test: co-IP; anti-integrin β1 antibody (JB1A) on precleared RIPA lysates (100 μg proteins) of BM-MSC adherent on type I dermal collagen or cellular fibronectin, treated or not with 50 ng/ml PDGF-AB for 1, 3 or 18 hours; overnight at 4 °C; blotted for β1 integrin and uPAR (399R); isotypic control IgG
# [2] = biological target: urokinase-type plasminogen activator receptor (human (endogenous in BM-MSC)) (UniProt Q03405); test: co-IP; anti-uPAR antibody (IID7, 2 μg) on precleared RIPA lysates (100 μg proteins) of BM-MSC adherent on type I dermal collagen, treated or not with 50 ng/ml PDGF-AB for 1 hour; overnight at 4 °C; blotted for uPAR (399R) and P-FAK; isotypic control IgG
Substance,binding [1],binding [2]
urokinase-type plasminogen activator receptor (from UniProt Q03405 23-305),binds,
autophosphorylated focal adhesion tyrosine kinase (from UniProt Q05397 1-1052) (enzyme),,binds

# Reference: paper PMC4588680
